Measurements reported in PubChem BioAssay AID1259272 (Sanger Institute, 2017).
Screen: 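Find kinases needed for SW1116 growth and partners for drug combinations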 (primary screen). Cell system: SW1116 human colorectal cancer cells. Knock-down reagent: siRNA pool against human genes. Challenge: anchor drugs BYL719 (1 µM), cetuximab (5 µg/ml) or trametinib (10 nM), or DMSO vehicle; exposure length not given. Measured: 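Cell survival as a fraction of wells given a non-targeting pool, averaged over replicates; robust z-score without drug; synergy score for each of BYL719, cetuximab and trametinib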. Scale: viability z-score, no drug: higher = more cells remaining; strongly negative means essential gene. Call rule: 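a robust z-score under -3 with siRNA and no drug marks the gene essential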. Calls: active = essential (knock-down alone); inactive = no change.
In all, the deposit lists 794 reagents; shown is a part drawn at random. 7 of all reagents (0.88%) count as active. 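Essential calls reflect knock-down without drug only, not synergy with drugs; drug exposure length not given.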 Not all columns of the deposit are shown. No sequences are given here. The record does not give: the amount of reagent, the time to read-out.

After knock-down of CSNK1G3 (casein kinase 1 gamma 3), the screen gave viability z-score, no drug 0.37; inactive.
PDPK1 (3-phosphoinositide dependent protein kinase 1) showed viability z-score, no drug -0.64; inactive.
Against LRRK2 (leucine rich repeat kinase 2), the entry reads viability z-score, no drug 0.824; inactive.
MAST2 (microtubule associated serine/threonine kinase 2) scored viability z-score, no drug -0.365; inactive.
WNK4 (WNK lysine deficient protein kinase 4) scored viability z-score, no drug -0.303; inactive.
Against PFKFB2 (6-phosphofructo-2-kinase/fructose-2,6-biphosphatase 2) the deposit lists viability z-score, no drug 0.586; inactive.
After knock-down of DYRK1B, the screen gave viability z-score, no drug 0.842; inactive.
After knock-down of BRDT (bromodomain testis associated), the record shows viability z-score, no drug 0.842; inactive.
Depletion of PIK3R4 (phosphoinositide-3-kinase regulatory subunit 4) came out at: viability z-score, no drug -0.488; inactive.
For SOS2 (SOS Ras/Rho guanine nucleotide exchange factor 2), the entry reads viability z-score, no drug 0.842; inactive.
For MET (MET proto-oncogene, receptor tyrosine kinase) the deposit lists viability z-score, no drug 0.73; inactive.
Against PIK3C2A, the entry reads viability z-score, no drug -1.52; inactive.
Depletion of AMER1 (APC membrane recruitment protein 1) gave: viability z-score, no drug 0.633; inactive.
KSR1 (kinase suppressor of ras 1) gave viability z-score, no drug -2.82; inactive.
CAMK1 (calcium/calmodulin dependent protein kinase I) scored viability z-score, no drug 0.315; inactive.
After knock-down of TRPM7 the results were viability z-score, no drug -0.063; inactive.
KSR2 (kinase suppressor of ras 2) showed viability z-score, no drug 0.32; inactive.

Copied from above, 2 entries:
LRRK2 (leucine rich repeat kinase 2) → viability z-score, no drug: 0.824; Outcome: inactive
MAST2 (microtubule associated serine/threonine kinase 2) → viability z-score, no drug: -0.365; Outcome: inactive

Additional results follow.
GRK3 (G protein-coupled receptor kinase 3) showed viability z-score, no drug 0.842; inactive.
With knock-down of BUB1 (BUB1 mitotic checkpoint serine/threonine kinase), the screen gave viability z-score, no drug 0.842; inactive.
LTK (leukocyte receptor tyrosine kinase) scored viability z-score, no drug 0.842; inactive.
PFKFB1 (6-phosphofructo-2-kinase/fructose-2,6-biphosphatase 1) showed viability z-score, no drug -0.0862; inactive.
SCYL1 (SCY1 like pseudokinase 1) gave viability z-score, no drug 0.842; inactive.
INSR (insulin receptor) showed viability z-score, no drug 0.842; inactive.
Knock-down of PGK2 (phosphoglycerate kinase 2) resulted in: viability z-score, no drug 0.842; inactive.
Silencing of MAPK11 (mitogen-activated protein kinase 11) resulted in: viability z-score, no drug 0.842; inactive.
After knock-down of IGF2R (insulin like growth factor 2 receptor), the record shows viability z-score, no drug 0.842; inactive.
With knock-down of MAP4K4 (mitogen-activated protein kinase kinase kinase kinase 4), the screen gave viability z-score, no drug 0.842; inactive.
With knock-down of PRKAG1 (protein kinase AMP-activated non-catalytic subunit gamma 1) the results were viability z-score, no drug -0.886; inactive.
